The values below come from doi:10.1101/2021.06.01.446599.

Results are given in words; binding and its absence hold for the method and conditions named. Some binding calls cover weakened binding; strength is not graded here. Where a sequence is shown, tags or fusion partners need not be part of it.

Common to all, as to assay: CeLINC
In one assay the target is T1, GFP::PKC-3 (C. elegans) (UniProt Q19266).
T1 sequence: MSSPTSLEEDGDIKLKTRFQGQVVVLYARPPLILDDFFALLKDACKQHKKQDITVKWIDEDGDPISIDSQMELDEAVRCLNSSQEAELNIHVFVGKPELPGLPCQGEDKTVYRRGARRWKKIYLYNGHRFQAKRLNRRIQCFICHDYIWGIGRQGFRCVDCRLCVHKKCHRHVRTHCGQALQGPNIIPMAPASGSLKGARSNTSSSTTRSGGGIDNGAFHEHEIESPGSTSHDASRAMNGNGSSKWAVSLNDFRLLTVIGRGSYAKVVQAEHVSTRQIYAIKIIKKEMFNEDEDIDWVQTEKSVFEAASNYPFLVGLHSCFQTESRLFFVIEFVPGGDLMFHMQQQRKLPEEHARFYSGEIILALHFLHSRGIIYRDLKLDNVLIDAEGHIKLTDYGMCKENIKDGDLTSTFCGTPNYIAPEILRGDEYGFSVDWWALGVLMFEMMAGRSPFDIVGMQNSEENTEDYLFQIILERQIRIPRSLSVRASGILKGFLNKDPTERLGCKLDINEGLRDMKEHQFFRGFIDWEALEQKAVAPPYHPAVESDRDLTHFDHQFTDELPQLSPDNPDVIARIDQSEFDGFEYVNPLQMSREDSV

Assay [1] addresses T2, GFP::AID::PAR-3 (C. elegans) (UniProt Q17353).
T2 sequence: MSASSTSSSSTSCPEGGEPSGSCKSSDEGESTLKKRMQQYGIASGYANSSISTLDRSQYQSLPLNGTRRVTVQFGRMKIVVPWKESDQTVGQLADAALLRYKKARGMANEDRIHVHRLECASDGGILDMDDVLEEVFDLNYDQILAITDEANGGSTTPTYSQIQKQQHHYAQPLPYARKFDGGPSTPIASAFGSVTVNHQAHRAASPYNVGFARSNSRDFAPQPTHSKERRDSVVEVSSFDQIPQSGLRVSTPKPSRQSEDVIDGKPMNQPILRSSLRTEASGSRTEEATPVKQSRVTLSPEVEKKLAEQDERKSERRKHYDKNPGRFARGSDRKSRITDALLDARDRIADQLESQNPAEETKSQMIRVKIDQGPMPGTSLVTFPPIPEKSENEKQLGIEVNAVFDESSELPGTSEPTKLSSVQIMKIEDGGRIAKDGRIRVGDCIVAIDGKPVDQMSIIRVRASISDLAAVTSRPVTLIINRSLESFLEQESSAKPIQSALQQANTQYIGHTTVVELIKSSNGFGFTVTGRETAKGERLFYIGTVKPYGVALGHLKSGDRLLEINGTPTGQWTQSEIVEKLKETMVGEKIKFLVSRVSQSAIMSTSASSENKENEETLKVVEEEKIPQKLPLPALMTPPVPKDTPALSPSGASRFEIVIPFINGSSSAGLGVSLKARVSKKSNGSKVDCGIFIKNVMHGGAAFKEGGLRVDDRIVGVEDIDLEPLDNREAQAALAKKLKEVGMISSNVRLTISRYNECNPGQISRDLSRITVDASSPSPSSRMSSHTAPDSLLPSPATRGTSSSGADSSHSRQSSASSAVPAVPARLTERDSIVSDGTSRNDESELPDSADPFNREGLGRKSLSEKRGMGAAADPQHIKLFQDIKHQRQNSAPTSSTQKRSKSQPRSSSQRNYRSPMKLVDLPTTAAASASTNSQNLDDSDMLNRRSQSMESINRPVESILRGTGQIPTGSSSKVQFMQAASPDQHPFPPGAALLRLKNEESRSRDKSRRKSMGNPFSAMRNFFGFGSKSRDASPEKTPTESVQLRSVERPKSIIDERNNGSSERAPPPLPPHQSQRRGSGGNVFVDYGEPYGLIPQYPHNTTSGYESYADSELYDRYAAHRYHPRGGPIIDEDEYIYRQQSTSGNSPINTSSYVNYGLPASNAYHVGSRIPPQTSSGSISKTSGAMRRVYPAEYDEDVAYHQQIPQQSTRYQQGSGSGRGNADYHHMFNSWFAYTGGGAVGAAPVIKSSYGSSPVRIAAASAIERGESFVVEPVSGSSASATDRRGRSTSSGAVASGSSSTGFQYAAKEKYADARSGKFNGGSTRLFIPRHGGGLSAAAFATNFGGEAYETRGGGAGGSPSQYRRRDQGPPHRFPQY

The target of assay [2] is T3, GFP::AID::PKC-3 (C. elegans) (UniProt Q19266).
T3 sequence: T1 sequence

The target in assay [3] is T4, PAR-6::mCherry (C. elegans) (UniProt Q9NAN2).
T4 sequence: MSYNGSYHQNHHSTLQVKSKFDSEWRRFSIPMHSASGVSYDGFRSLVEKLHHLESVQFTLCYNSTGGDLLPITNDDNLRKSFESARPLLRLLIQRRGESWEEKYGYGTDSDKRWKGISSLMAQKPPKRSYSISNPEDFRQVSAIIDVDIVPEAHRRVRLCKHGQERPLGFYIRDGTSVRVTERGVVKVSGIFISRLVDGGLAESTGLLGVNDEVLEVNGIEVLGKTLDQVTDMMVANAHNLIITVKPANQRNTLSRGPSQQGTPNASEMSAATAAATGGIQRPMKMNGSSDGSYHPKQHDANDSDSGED

As to “mKate2::PAR-6(ΔPB1) (from UniProt Q9NAN2 1-309)”, the binding entry in the assay with GFP::PKC-3 (C. elegans) is listed as “no binding”.

B1: mKate2::PAR-6 (protein, UniProt Q9NAN2 1-309)
chain: T4 sequence
For B1, the binding result with GFP::PKC-3 (C. elegans) is on record as “binds”.

B2: PAR-6::mCherry (protein, UniProt Q9NAN2 1-309)
chain: T4 sequence
In the case of B2, the binding entry in assay [1] and in assay [2] was “binds” throughout.

B3: GFP::AID::PKC-3 (protein, UniProt Q19266 1-597)
chain: T1 sequence
Turning to B3, the binding result in assay [3] is recorded as “binds”.

B4: DLG-1::mCherry (protein, UniProt G5ECY0 1-967)
chain: MSHESSEKAHKAIENVEDYCQTLTRHGNEELRTNLERVITTFKSNLMHSLLDIHDLYEQTLLSERKSDAEKNMEVRRVIERLEGGPHSYNSRPAATTSTSNYNLSSTTPLISDLRDRGGFSYLNGGGLGNGLGNGLGNGLLSSPYNSSSTHYLHERQRQTSHDGTWRETTTRTVDTPSGLERRVVEHTGVIDDHGRKWELENIVLEKGHTGLGFSITGGMDQPTEDGDTSIYVTNIIEGGAALADGRMRKNDIITAVNNTNCENVKHEVAVNALKSSGNVVSLSLKRRKDEAFLPIGGNFGGSTSYLRSGVTPSVSAGNLQHAIHSPSAPIHPPPPPPVHHGSLSQLSVGQYRSTRPNTSVIDLVKGARGLGFSIAGGQGNEHVKGDTDIYVTKIIEEGAAELDGRLRVGDKILEVDHHSLINTTHENAVNVLKNTGNRVRLLIQQGTGAIFNDSASQQFMPTTPILRPSSVQDYNRSQMGSQSHLSYGGPLNTSYSSQAPIAIPLEPRPVQLVKGQNGLGFNIVGGEDNEPIYISFVLPGGVADLSGNVKTGDVLLEVNGVVLRNATHKEAAEALRNAGNPVYLTLQYRPQEYQIFESKIEKLRNDVIAQSRMGTLSRKSEYVRALFDYDPSRENSVAPHRSMGFNYGDILHIINSSDDEWWTARKVHENGEETAEGVIPSKKRVEKRERLRRKQVNFNSGSQSLGRNSSTTGLENRRGSRSQLSFSRKFPFVKSTDRLNDLNEESSNVAEEPVWSYQAVEQQAINYVRPVIILGALKDRINDELVNRDPSKFSSCVPHTSRPPREGEVNGRDYYFVNKHNMEEDVKNNLFIEAGQFQNNLYGTSIQSVRDVANQGRHCILDVSGNAIRRLQSNANIQPISIFIKPSSAQQILELDSQLATNRQDDRAMSGEEAQAQYSRCHRIEQTFGDLFTQEISNVHSANDVLSKVYSIISRESQTPIWVPRH
B4: the binding entry with GFP::PKC-3 (C. elegans) is recorded as “no binding”.
